# Data: the supplement of paper PMC11732987, “Enantioselective OTUD7B fragment discovery through chemoproteomics screening and high-throughput optimisation” (Communications Chemistry, 2025)
# By UniProt entry, the sequences of proteins in these tests, tags left out. Where a name states a change or a piece, a line headed by the entry shows the natural chain unless it says otherwise. Residues count along the entry.
# UniProt Q9HB71: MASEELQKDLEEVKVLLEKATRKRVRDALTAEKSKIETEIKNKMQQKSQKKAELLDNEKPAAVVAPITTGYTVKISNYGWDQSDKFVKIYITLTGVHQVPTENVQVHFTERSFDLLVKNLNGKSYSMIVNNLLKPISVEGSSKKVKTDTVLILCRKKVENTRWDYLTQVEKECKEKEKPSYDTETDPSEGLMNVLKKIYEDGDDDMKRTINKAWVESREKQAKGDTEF
# UniProt Q9H8G2: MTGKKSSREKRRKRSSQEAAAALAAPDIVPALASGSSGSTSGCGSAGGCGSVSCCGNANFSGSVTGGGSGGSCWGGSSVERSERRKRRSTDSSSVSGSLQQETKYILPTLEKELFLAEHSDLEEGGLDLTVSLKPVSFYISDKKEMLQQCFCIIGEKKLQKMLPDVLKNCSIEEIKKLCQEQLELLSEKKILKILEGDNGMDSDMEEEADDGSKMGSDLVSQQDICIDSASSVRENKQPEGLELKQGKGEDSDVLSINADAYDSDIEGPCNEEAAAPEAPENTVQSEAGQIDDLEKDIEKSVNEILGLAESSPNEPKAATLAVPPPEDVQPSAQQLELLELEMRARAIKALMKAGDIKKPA
# UniProt Q8N8R5: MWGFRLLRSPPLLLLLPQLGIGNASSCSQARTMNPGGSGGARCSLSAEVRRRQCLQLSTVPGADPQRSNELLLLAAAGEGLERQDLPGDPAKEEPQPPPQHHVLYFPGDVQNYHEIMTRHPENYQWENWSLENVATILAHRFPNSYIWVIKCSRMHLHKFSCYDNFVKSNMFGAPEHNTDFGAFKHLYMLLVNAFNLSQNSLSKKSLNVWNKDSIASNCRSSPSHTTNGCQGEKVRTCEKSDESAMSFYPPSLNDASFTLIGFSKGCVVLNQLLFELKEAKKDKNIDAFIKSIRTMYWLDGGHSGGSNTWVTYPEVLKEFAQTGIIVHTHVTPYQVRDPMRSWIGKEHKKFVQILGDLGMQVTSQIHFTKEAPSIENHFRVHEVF
# UniProt Q5T5Y3: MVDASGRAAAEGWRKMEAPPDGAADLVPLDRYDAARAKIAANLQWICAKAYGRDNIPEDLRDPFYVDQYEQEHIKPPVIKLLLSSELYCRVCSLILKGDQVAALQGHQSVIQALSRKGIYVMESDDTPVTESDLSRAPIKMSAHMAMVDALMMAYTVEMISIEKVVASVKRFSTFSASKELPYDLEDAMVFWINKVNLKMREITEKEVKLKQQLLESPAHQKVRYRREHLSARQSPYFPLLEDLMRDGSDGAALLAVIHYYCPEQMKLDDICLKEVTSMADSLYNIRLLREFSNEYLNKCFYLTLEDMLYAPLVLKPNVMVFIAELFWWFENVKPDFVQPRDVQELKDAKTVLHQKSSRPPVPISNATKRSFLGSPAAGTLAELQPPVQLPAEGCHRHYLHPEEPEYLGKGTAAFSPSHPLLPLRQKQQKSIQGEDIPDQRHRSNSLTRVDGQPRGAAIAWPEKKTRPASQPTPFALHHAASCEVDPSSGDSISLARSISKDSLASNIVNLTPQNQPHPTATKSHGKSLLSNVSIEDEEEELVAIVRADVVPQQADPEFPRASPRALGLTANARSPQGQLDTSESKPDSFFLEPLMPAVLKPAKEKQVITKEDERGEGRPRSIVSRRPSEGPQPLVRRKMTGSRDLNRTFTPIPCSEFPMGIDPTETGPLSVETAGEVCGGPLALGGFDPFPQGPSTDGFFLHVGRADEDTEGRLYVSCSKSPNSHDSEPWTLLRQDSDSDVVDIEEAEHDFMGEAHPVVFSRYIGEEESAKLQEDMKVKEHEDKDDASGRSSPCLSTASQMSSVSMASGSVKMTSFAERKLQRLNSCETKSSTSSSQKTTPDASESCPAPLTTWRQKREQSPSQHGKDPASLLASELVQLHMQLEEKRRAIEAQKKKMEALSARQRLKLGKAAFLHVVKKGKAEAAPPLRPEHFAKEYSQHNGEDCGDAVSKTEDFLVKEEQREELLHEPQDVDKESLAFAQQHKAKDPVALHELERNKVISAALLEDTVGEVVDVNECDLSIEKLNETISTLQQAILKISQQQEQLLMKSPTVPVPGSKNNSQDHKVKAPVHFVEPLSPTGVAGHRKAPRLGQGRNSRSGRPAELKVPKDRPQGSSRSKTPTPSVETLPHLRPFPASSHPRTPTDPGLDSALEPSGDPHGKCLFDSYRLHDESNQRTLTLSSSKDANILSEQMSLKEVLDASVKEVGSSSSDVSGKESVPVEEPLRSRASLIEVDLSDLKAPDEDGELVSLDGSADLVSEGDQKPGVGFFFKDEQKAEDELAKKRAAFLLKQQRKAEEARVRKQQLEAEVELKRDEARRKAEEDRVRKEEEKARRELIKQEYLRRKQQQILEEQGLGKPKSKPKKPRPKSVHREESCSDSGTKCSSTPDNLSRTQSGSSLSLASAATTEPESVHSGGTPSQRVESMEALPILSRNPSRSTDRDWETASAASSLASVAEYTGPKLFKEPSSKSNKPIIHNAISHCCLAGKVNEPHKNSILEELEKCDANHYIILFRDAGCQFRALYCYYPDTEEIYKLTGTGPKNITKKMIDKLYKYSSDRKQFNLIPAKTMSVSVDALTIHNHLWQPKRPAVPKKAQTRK
# UniProt O14981: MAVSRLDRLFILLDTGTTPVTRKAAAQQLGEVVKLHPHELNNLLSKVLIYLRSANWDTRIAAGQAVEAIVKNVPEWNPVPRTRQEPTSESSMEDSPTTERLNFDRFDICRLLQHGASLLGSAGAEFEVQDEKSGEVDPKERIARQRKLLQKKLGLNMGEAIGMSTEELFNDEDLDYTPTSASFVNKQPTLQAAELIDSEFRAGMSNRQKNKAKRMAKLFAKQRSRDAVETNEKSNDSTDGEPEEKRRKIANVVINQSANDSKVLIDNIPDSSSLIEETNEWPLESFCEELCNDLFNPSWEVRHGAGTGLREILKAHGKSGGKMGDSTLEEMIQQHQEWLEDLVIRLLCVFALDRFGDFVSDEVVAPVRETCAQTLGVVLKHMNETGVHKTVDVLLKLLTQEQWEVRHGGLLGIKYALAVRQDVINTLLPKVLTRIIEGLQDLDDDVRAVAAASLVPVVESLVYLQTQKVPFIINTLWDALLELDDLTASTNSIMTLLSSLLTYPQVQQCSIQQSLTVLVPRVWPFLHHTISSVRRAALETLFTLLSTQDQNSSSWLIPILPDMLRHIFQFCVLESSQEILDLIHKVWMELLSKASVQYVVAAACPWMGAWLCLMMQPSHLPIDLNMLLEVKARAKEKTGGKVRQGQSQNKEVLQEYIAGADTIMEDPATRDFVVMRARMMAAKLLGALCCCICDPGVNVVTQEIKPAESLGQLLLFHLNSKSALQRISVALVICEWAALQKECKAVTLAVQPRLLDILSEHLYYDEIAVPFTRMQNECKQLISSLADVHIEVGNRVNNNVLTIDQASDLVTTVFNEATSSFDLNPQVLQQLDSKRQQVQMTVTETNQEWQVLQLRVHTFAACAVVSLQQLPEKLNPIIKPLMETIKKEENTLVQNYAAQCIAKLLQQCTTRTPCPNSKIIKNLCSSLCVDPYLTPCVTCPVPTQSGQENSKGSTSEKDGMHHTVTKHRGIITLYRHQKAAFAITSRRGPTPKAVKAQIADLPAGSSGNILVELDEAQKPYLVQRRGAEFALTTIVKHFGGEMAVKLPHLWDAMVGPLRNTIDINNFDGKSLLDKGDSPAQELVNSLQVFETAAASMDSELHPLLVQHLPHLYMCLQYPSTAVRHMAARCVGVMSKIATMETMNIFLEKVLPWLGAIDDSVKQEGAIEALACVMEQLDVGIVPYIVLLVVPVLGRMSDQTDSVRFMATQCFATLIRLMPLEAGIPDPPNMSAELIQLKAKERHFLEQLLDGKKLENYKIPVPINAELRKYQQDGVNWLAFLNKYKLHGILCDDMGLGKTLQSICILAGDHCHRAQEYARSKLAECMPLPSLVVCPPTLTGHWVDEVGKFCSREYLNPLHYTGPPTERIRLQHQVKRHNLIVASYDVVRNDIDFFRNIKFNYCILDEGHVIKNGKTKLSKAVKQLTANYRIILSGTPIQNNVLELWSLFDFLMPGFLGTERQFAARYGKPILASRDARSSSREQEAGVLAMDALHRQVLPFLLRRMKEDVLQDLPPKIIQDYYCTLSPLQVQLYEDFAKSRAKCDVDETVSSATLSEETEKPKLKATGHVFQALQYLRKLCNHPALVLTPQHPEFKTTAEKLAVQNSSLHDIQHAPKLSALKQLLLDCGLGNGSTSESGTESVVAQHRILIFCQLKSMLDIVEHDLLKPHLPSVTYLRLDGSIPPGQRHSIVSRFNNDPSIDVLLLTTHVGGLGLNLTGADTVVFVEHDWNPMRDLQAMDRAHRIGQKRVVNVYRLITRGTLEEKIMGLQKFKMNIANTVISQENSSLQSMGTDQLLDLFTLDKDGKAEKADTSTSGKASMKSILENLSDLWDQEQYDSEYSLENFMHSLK
# UniProt P42575: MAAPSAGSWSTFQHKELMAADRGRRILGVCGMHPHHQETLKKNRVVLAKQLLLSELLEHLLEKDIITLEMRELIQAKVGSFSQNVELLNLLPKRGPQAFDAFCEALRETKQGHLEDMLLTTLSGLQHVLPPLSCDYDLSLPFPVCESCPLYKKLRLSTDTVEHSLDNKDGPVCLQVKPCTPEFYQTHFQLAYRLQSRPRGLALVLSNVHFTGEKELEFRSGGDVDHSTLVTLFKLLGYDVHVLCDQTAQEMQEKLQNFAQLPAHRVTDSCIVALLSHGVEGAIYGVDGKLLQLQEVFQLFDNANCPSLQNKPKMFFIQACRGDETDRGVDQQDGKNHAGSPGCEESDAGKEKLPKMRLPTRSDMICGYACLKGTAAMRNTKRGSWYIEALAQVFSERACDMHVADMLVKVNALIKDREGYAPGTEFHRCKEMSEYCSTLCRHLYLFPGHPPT
# UniProt P42574, 165-186: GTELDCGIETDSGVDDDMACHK
# UniProt Q92994: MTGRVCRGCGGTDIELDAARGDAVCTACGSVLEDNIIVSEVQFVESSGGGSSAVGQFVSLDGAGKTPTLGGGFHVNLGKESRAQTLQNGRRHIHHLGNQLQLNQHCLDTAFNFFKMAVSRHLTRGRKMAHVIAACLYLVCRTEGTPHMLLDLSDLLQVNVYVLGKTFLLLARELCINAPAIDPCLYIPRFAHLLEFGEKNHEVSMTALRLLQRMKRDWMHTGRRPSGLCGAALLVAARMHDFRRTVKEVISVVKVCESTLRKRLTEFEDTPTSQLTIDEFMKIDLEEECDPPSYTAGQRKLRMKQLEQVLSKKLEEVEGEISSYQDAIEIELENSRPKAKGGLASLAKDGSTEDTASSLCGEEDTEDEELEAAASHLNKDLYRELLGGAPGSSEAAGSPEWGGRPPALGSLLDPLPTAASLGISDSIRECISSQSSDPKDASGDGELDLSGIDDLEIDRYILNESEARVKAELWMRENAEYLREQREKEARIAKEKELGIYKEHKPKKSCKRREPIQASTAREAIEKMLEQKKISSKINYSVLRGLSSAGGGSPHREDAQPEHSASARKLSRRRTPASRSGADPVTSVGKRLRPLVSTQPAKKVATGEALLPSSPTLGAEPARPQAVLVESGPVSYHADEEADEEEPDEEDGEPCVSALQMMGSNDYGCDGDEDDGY
# UniProt O14936: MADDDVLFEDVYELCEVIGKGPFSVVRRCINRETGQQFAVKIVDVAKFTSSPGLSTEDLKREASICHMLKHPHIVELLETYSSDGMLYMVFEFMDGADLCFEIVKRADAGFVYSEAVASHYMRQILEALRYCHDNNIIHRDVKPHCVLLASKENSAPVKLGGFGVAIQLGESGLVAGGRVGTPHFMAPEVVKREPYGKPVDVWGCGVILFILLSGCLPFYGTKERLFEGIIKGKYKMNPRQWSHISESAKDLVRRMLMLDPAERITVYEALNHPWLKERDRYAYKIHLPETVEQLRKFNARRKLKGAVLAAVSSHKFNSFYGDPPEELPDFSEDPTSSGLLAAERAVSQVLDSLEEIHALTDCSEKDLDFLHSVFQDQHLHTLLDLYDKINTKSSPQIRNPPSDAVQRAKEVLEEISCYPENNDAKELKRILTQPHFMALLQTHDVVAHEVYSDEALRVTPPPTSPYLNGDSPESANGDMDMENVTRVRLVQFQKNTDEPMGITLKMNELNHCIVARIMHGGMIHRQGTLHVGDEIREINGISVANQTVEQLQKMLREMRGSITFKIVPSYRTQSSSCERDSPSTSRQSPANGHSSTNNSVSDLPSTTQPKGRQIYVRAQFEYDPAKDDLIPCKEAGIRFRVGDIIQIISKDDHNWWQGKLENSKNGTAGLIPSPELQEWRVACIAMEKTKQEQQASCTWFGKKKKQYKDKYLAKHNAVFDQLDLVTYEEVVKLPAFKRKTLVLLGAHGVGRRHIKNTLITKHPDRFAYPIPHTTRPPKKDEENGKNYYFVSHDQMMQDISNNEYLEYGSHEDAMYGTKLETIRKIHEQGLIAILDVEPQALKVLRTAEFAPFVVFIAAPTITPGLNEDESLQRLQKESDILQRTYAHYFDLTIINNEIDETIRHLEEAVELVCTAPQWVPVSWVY
# The list shows a part of the results. The data scatter; read single values as rough.
# What was measured:
# [1] = compound: ClCC(=O)N[C@@H]1CCCc2ccccc12; assay: log2 mean competition ratio of IA-DTB cysteine labelling (DMSO/compound) (log2 ratio); higher = stronger cysteine engagement by compound; settings: treatment time: 4 h, cell line lysate: HEK293T
# Method: (§1)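 IA-DTB competitive cysteine chemoproteomics in HEK293T RIPA lysate. Lysates were treated with compound 29 or 30 at 50 or 200 µM for 4 h, then IA-DTB (500 µM, 1 h), trypsin-digested, NeutrAvidin-enriched and analysed by diaPASEF. Competition ratio = intensity DMSO / intensity compound (n=4 treated, n=64 DMSO); binding: mean log2 CR ≥ 1 and p ≤ 0.05 plus QC filters. Target is the cysteine site.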
# [2] = compound: ClCC(=O)N[C@H]1CCCc2ccccc12; assay: as above; settings: treatment time: 4 h, cell line lysate: HEK293T
# Method: as §1
target,measurement,setting,value
CACYBP C173 (UniProt Q9HB71),log2 mean competition ratio,[1]; 50 µM,-0.215
same,log2 mean competition ratio,[1]; 200 µM,0.199
same,log2 mean competition ratio,[2]; 50 µM,-0.308
same,log2 mean competition ratio,[2]; 200 µM,0.204
BPTF C882,log2 mean competition ratio,[1]; 50 µM,-0.032
same,log2 mean competition ratio,[1]; 200 µM,-0.276
same,log2 mean competition ratio,[2]; 50 µM,-0.465
same,log2 mean competition ratio,[2]; 200 µM,-0.161
C18orf21 C104 (UniProt Q32NC0),log2 mean competition ratio,[1]; 50 µM,0.144
same,log2 mean competition ratio,[1]; 200 µM,-0.363
same,log2 mean competition ratio,[2]; 50 µM,0.732
same,log2 mean competition ratio,[2]; 200 µM,-0.288
CAAP1 C170 (UniProt Q9H8G2),log2 mean competition ratio,[1]; 50 µM,-0.115
same,log2 mean competition ratio,[1]; 200 µM,-0.175
same,log2 mean competition ratio,[2]; 50 µM,-0.0324
same,log2 mean competition ratio,[2]; 200 µM,-0.16
CBL C508 (UniProt P22681),log2 mean competition ratio,[1]; 50 µM,0.0586
same,log2 mean competition ratio,[1]; 200 µM,0.0923
same,log2 mean competition ratio,[2]; 50 µM,0.28
same,log2 mean competition ratio,[2]; 200 µM,0.33
C15orf61 C84,log2 mean competition ratio,[1]; 50 µM,0.206
same,log2 mean competition ratio,[1]; 200 µM,0.16
same,log2 mean competition ratio,[2]; 50 µM,-0.108
same,log2 mean competition ratio,[2]; 200 µM,-0.0455
CAPN7 C242 (UniProt Q9Y6W3),log2 mean competition ratio,[1]; 50 µM,-0.0953
same,log2 mean competition ratio,[1]; 200 µM,-0.104
same,log2 mean competition ratio,[2]; 50 µM,0.056
same,log2 mean competition ratio,[2]; 200 µM,-0.171
CASP8AP2 C174 (UniProt Q9UKL3),log2 mean competition ratio,[1]; 50 µM,0.0998
same,log2 mean competition ratio,[1]; 200 µM,-0.326
same,log2 mean competition ratio,[2]; 50 µM,0.457
same,log2 mean competition ratio,[2]; 200 µM,-0.227
C2orf69 C219 (UniProt Q8N8R5),log2 mean competition ratio,[1]; 50 µM,-0.00677
same,log2 mean competition ratio,[1]; 200 µM,0.245
same,log2 mean competition ratio,[2]; 50 µM,0.0498
same,log2 mean competition ratio,[2]; 200 µM,0.213
CADPS2 C168,log2 mean competition ratio,[1]; 50 µM,0.114
same,log2 mean competition ratio,[1]; 200 µM,0.0737
same,log2 mean competition ratio,[2]; 50 µM,0.0381
same,log2 mean competition ratio,[2]; 200 µM,-0.133
BPTF C1969,log2 mean competition ratio,[1]; 50 µM,-0.201
same,log2 mean competition ratio,[1]; 200 µM,-0.111
same,log2 mean competition ratio,[2]; 50 µM,-0.625
same,log2 mean competition ratio,[2]; 200 µM,-0.261
CAMSAP1 C272 (UniProt Q5T5Y3),log2 mean competition ratio,[1]; 50 µM,-0.143
same,log2 mean competition ratio,[1]; 200 µM,0.134
same,log2 mean competition ratio,[2]; 50 µM,-0.0769
same,log2 mean competition ratio,[2]; 200 µM,0.115
BTAF1 C900 (UniProt O14981),log2 mean competition ratio,[1]; 50 µM,0.0508
same,log2 mean competition ratio,[1]; 200 µM,-0.0216
same,log2 mean competition ratio,[2]; 50 µM,-0.0465
same,log2 mean competition ratio,[2]; 200 µM,-0.118
CASP2 C343 (UniProt P42575),log2 mean competition ratio,[1]; 50 µM,0.0696
same,log2 mean competition ratio,[1]; 200 µM,-0.311
same,log2 mean competition ratio,[2]; 50 µM,-0.411
same,log2 mean competition ratio,[2]; 200 µM,-0.185
CAND1 C954,log2 mean competition ratio,[1]; 50 µM,0.0342
same,log2 mean competition ratio,[1]; 200 µM,-0.205
same,log2 mean competition ratio,[2]; 50 µM,0.574
same,log2 mean competition ratio,[2]; 200 µM,-0.0911
"CASP3_(C170,C170,C184,C184) (UniProt P42574)",log2 mean competition ratio,[1]; 50 µM,-0.166
same,log2 mean competition ratio,[1]; 200 µM,-0.464
same,log2 mean competition ratio,[2]; 50 µM,0.213
same,log2 mean competition ratio,[2]; 200 µM,-0.181
BRD1 C805,log2 mean competition ratio,[1]; 50 µM,0.058
same,log2 mean competition ratio,[1]; 200 µM,-0.0114
same,log2 mean competition ratio,[2]; 50 µM,-0.177
same,log2 mean competition ratio,[2]; 200 µM,-0.157
BRF1 C289 (UniProt Q92994),log2 mean competition ratio,[1]; 50 µM,0.28
same,log2 mean competition ratio,[1]; 200 µM,-0.257
same,log2 mean competition ratio,[2]; 50 µM,0.0844
same,log2 mean competition ratio,[2]; 200 µM,-0.145
CASK C633 (UniProt O14936),log2 mean competition ratio,[1]; 50 µM,-0.106
same,log2 mean competition ratio,[1]; 200 µM,0.137
same,log2 mean competition ratio,[2]; 50 µM,-0.1
same,log2 mean competition ratio,[2]; 200 µM,0.0514
CAND1 C71,log2 mean competition ratio,[1]; 50 µM,-0.101
same,log2 mean competition ratio,[1]; 200 µM,-0.335
same,log2 mean competition ratio,[2]; 50 µM,0.185
same,log2 mean competition ratio,[2]; 200 µM,-0.143
CAMK2G C290 (UniProt Q13555),log2 mean competition ratio,[1]; 50 µM,-0.166
same,log2 mean competition ratio,[1]; 200 µM,-0.00251
same,log2 mean competition ratio,[2]; 50 µM,0.24
same,log2 mean competition ratio,[2]; 200 µM,0.0549

# A second format for part of the listing above.
target | measurement | setting | value
BPTF C882 | log2 mean competition ratio | [1]; 200 µM | -0.276
same | log2 mean competition ratio | [2]; 50 µM | -0.465
same | log2 mean competition ratio | [2]; 200 µM | -0.161
C18orf21 C104 (UniProt Q32NC0) | log2 mean competition ratio | [1]; 50 µM | 0.144
same | log2 mean competition ratio | [1]; 200 µM | -0.363
